This data set has as its system serum sterols other than cholesterol. The data set can be described thus: Gas-liquid chromatographic analysis of serum sterols of treated rats. In kind it is in vivo, rat (male, Sprague-Dawley). Conditions: 5 mg s.c. once a day; after 12 days; no detectable accumulation.

Regarding `CCCCCCCCCCCCCCCC(=O)O[C@H]1CC[C@@]2(C)[C@@H](CCC3=C4C(=O)C[C@H]([C@H](C)CCCC(C)C)[C@@]4(C)CC[C@@H]32)C1` [3β-hexadecanoyloxy-5α-cholest-8(14)-en-15-one], the “accumulation of sterols other than cholesterol in serum” value was less than 1%.
The result for `CC(C)CCC[C@@H](C)[C@H]1CC(=O)C2=C3CC[C@H]4C[C@@H](OC(=O)CCC(=O)O)CC[C@]4(C)[C@H]3CC[C@@]21C` [3β-hemisuccinoyloxy-5α-cholest-8(14)-en-15-one] reads less than 1%.

The values are drawn from patent US4202891A, “15-Oxygenated sterol compounds and the use of such compounds to inhibit the biosynthesis of sterols” (priority 1977, dated 1980).
